Source: paper PMC10323883
Results are given in words; binding and its absence hold for the method and conditions named. Binding seen in cells or lysates may run through a third protein. Some binding calls cover weakened binding; strength is not graded here. Tags and fused reporters may be left off the sequences shown.

Target: T1, GFP-tagged MND1 fusion protein (human) (UniProt Q9BWT6)
T1 sequence: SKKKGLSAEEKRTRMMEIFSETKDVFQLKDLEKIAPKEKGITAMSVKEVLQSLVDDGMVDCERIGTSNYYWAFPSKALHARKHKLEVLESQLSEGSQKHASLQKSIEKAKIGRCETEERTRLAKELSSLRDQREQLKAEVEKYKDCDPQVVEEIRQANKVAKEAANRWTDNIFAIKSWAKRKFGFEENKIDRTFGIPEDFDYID
Experiment: co-IP; cells expressing GFP-MND1 or GFP alone; with and without DNA damage (interaction called DNA damage-independent); no Co-IP protocol in the methods

B1: HOP2 (protein, UniProt Q9P2W1 1-217)
chain: MSKGRAEAAAGAAGILLRYLQEQNRPYSSQDVFGNLQREHGLGKAVVVKTLEQLAQQGKIKEKMYGKQKIYFADQDQFDMVSDADLQVLDGKIVALTAKVQSLQQSCRYMEAELKELSSALTTPEMQKEIQELKKECAGYRERLKNIKAATNHVTPEEKEQVYRERQKYCKEWRKRKRMATELSDAILEGYPKSKKQFFEEVGIETDEDYNVTLPDP
binding: binds
